The other results are listed elsewhere or left out.
What was measured:
Experiment in all cases: log2 fold change, soluble protein after heating vs DMSO (PISA); higher = thermal stabilisation; K562 cells, 10 uM, 30 min; active = over 0.2 and 3.5 SD of the protein, either way, in both replicates (recomputed)
[1] = compound: C1=CC=C(C=C1)[C@H](COC2=CC3=C(C=C2)NC(=O)N3)NC(=O)C4=CC=CN(C4=O)CC5=CC(=C(C=C5)F)F
Procedure, shortened: (§1)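 K562 cells at 2×10^6 cells/mL were exposed to 10 μM compound for 30 min, then aliquots were heated for 3 min across 48°C-58°C, pooled, and extracted in PBS containing 0.5% NP-40 at 4°C. The supernatant after 21,000xg for 90 min was taken as soluble protein and measured by TMTpro 16plex LC-MS/MS with channel sums equalised. Thermal stability is reported relative to control samples, with values from duplicates. Fold changes are given on a log2 scale.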

Protein sequences, listed by entry. Tags and fused reporters are not part of them. Lines headed by an entry give the natural chain unless they say otherwise; changes in a name come on top.
UniProt Q9UPR3: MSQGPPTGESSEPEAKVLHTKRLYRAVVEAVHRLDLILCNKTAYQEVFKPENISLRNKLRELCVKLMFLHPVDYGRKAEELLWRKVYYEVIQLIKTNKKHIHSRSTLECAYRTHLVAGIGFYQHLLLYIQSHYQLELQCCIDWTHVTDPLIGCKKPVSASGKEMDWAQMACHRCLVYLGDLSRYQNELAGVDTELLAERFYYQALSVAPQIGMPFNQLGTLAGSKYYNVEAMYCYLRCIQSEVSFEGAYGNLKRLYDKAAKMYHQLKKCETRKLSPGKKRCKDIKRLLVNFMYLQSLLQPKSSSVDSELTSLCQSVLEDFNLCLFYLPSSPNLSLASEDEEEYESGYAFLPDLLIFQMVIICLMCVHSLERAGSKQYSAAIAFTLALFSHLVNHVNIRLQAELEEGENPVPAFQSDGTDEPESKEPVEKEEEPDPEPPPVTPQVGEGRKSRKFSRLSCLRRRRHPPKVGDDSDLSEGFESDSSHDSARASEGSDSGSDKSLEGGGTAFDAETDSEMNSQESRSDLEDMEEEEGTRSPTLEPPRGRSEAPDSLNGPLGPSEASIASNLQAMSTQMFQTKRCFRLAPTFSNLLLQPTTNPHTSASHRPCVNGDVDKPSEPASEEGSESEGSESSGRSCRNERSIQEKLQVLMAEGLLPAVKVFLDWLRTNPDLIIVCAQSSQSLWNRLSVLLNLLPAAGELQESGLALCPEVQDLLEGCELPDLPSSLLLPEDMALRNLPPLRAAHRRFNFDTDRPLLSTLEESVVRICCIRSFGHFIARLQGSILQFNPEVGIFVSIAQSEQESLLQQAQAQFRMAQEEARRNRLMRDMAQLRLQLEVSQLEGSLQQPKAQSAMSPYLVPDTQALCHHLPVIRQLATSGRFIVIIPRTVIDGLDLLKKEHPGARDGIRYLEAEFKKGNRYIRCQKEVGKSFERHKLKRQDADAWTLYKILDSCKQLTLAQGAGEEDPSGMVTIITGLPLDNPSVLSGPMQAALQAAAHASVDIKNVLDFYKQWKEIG
UniProt Q14BN4: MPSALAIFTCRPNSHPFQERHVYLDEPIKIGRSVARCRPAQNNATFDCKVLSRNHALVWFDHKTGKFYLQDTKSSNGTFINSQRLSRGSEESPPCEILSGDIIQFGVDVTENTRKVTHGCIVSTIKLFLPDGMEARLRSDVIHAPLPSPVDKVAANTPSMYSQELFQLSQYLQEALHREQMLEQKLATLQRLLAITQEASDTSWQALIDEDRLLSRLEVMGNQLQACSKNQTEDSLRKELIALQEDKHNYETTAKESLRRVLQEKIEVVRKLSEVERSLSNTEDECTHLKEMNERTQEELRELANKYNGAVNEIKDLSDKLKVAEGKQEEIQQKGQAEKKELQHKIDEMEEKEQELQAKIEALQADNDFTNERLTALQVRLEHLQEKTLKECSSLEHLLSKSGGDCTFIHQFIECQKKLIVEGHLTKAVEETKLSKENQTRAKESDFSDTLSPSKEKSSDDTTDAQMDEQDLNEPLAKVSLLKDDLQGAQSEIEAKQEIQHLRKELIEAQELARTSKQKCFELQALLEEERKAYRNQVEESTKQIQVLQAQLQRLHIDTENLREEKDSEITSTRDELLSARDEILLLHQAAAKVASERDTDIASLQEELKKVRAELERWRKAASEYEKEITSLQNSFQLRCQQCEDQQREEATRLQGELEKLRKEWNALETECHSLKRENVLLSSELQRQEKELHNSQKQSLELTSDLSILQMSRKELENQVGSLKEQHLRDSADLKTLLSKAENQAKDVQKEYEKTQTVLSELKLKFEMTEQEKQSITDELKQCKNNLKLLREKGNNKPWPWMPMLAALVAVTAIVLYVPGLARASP
UniProt P28370, whole entry, looked up: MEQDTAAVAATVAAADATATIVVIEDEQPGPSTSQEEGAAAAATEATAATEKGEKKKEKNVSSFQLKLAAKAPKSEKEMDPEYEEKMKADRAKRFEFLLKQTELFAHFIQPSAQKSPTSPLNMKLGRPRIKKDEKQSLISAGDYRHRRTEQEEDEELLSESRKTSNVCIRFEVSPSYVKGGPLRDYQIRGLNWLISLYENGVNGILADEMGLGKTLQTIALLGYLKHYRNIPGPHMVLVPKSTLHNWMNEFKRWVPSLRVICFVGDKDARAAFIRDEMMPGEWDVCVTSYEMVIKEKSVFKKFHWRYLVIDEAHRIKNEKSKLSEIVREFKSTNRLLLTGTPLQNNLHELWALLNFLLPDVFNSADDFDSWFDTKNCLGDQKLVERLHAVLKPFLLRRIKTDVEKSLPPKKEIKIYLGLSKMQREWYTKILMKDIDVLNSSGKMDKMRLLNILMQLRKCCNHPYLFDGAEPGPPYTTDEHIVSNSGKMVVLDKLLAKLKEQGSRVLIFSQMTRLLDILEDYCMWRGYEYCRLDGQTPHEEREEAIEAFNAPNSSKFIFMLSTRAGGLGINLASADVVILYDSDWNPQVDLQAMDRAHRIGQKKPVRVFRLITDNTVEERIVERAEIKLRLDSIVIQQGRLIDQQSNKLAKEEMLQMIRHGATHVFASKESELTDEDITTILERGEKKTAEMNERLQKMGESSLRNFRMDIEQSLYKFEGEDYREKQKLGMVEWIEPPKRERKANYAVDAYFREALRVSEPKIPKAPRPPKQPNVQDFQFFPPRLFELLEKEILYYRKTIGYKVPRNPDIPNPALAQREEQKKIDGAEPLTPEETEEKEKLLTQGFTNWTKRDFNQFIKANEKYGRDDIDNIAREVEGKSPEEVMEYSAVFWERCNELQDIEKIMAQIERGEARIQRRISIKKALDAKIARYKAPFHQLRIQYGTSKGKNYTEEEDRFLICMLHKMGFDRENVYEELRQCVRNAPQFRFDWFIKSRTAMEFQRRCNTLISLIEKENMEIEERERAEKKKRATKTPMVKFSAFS
UniProt P0C7P3: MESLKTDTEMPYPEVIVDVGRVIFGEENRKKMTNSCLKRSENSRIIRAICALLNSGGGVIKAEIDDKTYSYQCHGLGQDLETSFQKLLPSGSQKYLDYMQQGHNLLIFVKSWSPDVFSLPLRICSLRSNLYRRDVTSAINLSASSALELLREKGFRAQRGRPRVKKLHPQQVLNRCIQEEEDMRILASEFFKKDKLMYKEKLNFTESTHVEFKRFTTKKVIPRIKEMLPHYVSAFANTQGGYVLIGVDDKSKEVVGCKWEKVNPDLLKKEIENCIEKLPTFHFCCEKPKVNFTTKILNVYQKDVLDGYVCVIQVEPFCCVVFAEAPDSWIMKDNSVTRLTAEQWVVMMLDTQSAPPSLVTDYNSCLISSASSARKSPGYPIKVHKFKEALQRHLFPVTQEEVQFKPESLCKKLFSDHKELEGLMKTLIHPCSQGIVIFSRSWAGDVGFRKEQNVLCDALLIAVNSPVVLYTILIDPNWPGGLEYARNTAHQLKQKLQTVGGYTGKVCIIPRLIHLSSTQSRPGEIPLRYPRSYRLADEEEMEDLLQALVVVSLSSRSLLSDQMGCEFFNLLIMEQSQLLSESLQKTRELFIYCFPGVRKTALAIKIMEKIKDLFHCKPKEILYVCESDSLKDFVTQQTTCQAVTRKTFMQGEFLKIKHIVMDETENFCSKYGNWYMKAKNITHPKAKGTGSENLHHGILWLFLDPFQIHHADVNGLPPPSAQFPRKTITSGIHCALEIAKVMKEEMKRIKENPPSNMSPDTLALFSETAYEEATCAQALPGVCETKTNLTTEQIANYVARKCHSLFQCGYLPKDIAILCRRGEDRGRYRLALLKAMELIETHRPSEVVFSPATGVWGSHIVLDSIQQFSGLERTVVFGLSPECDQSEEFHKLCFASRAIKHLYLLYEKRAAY
UniProt Q9H2G2: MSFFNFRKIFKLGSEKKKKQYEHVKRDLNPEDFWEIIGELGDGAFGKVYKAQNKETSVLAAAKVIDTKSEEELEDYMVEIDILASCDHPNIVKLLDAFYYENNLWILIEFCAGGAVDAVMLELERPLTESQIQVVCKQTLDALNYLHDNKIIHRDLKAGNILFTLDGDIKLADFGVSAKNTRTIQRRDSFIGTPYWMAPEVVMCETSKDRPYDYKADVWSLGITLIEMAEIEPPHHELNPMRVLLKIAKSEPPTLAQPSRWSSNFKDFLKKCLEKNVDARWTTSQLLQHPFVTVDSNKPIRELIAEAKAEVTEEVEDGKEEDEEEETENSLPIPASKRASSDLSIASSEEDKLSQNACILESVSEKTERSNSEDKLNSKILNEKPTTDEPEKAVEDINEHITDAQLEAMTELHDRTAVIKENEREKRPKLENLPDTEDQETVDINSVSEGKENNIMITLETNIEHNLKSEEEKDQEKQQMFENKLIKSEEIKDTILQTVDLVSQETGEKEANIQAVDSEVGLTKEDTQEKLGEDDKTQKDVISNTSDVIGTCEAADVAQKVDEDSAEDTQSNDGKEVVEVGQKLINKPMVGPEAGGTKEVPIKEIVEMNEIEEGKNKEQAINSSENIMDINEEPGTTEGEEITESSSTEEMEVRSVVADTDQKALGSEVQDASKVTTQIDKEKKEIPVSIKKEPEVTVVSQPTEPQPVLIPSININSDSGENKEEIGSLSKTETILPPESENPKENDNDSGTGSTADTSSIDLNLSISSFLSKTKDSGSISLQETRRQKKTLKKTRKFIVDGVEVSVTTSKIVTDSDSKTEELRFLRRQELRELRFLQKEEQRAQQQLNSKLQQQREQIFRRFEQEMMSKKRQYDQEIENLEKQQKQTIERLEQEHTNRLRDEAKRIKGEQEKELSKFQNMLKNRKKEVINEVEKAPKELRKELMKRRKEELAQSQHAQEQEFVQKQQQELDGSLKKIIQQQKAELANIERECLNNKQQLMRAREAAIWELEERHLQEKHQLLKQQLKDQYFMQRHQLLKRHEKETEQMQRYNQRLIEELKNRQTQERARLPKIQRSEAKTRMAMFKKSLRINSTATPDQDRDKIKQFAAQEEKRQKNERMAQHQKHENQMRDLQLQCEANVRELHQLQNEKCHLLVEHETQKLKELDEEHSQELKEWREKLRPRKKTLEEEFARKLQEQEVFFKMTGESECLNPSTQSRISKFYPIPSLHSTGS
UniProt Q99717: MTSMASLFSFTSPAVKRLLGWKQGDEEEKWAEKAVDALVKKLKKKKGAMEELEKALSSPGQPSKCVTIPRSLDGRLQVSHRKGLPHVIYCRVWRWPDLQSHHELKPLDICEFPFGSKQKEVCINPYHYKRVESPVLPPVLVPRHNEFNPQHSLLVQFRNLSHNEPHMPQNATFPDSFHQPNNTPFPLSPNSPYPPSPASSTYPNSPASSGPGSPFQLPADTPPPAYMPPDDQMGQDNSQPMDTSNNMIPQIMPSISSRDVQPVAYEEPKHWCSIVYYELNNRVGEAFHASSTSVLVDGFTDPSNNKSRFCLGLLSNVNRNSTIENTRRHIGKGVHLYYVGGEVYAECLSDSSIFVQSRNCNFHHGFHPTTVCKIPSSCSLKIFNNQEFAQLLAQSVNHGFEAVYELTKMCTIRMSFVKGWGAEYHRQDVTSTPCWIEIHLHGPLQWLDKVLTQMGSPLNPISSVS
UniProt P04179: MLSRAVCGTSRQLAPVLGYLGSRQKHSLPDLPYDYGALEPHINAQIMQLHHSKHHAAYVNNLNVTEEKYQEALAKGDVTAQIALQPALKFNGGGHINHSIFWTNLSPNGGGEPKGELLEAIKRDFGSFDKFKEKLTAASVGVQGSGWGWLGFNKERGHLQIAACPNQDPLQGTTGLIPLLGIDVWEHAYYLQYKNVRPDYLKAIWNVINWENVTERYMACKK
UniProt Q6J4K2: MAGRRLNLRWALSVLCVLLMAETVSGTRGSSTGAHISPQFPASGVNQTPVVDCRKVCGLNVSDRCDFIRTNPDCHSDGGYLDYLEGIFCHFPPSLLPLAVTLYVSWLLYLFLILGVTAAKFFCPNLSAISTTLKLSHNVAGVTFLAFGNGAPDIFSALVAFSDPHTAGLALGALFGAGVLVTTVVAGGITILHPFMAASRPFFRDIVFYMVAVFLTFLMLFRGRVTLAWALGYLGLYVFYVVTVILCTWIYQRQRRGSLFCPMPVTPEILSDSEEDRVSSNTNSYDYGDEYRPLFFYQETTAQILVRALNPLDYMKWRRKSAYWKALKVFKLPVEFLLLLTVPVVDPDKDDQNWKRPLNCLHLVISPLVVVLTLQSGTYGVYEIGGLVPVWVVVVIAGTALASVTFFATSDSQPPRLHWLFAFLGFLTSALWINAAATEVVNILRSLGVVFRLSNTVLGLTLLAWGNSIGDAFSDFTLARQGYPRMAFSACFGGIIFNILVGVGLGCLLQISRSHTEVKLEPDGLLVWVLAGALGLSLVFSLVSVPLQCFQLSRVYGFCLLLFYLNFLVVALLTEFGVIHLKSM
UniProt Q96E16: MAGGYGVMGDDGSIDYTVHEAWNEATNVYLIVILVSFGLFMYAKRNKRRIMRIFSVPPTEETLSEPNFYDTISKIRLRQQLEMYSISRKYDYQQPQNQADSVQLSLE

[2] = compound: CC1=C(SC2=C1C(=N[C@H](C3=NN=C(N32)C)CC(=O)N)C4=CC=C(C=C4)Cl)C
Procedure, shortened: as §1

[3] = compound: CC1=C2C(=CC=C1)N=C(N(C2=O)C3=CC=CC=C3C)CN4C=NC5=C(N=CN=C54)N
Procedure, shortened: as §1

[4] = compound: Cc1sc2c(c1C)C(c1ccc(Cl)cc1)=N[C@@H](CC(=O)OC(C)(C)C)c1nnc(C)n1-2
Procedure, shortened: as §1

[5] = compound: c1ccc([C@@H]2C[C@H]2NC2CCNCC2)cc1
Procedure, shortened: as §1

Measured: log2 fold change

SP3 (UniProt Q02447)
inactive: [1] 0.018 | [2] -0.024 | [3] -0.043 | [4] 0.025 | [5] 0.009

SMG7 isoform 4 (UniProt Q92540)
inactive: [1] 0.152 | [2] -0.115 | [3] 0.103 | [4] 0.022 | [5] 0.022

SMC6 isoform 2 (UniProt Q96SB8)
inactive: [1] -0.09 | [2] 0.041 | [3] 0.005 | [4] 0.042 | [5] 0.002

SMYD5 (UniProt Q6GMV2)
inactive: [1] -0.038 | [2] 0.04 | [3] 0.029 | [4] -0.001 | [5] 0.003

SNRPC (UniProt Q5TAL2)
inactive: [1] 0.132 | [2] 0.109 | [3] 0.071 | [4] -0.05 | [5] -0.135

SMS (UniProt P52788)
inactive: [1] 0.002 | [2] 0.001 | [3] 0.003 | [4] -0.007 | [5] 0.023

SNRNP200 (UniProt O75643)
inactive: [1] 0.017 | [2] 0.01 | [3] -0.003 | [4] 0.084 | [5] 0.032

SMG5 (UniProt Q9UPR3)
inactive: [1] 0.106 | [2] -0.018 | [3] -0.051 | [4] 0.007 | [5] 0

SLIRP (UniProt Q9GZT3)
inactive: [1] -0.038 | [2] -0.073 | [3] 0.01 | [4] -0.016 | [5] 0.042

2 entries drawn at random from the list so far, as already listed:
SMYD5 (UniProt Q6GMV2)
inactive: [1] -0.038 | [2] 0.04 | [3] 0.029 | [4] -0.001 | [5] 0.003

SMC6 isoform 2 (UniProt Q96SB8)
inactive: [1] -0.09 | [2] 0.041 | [3] 0.005 | [4] 0.042 | [5] 0.002

Later entries:

SLMAP (UniProt Q14BN4)
inactive: [1] 0.022 | [2] -0.02 | [3] 0.063 | [4] 0.087 | [5] 0.02

SMARCA1 (UniProt P28370)
inactive: [1] -0.147 | [2] -0.004 | [3] 0.163 | [4] 0 | [5] 0.068

SNX2 (UniProt O60749)
inactive: [1] -0.015 | [2] 0.069 | [3] 0.066 | [4] -0.026 | [5] -0.079

SLFN14 (UniProt P0C7P3)
inactive: [1] -0.189 | [2] 0.043 | [3] -0.869 | [4] 0.39 | [5] 0.007

SNRPD2 (UniProt K7EJB5)
inactive: [1] 0.016 | [2] -0.066 | [3] 0.104 | [4] 0.118 | [5] 0.03

SMCHD1 (UniProt A6NHR9)
inactive: [1] 0.129 | [2] 0.141 | [3] 0.063 | [4] 0.01 | [5] 0.036

SMAP2 (UniProt Q8WU79)
inactive: [1] -0.041 | [2] 0.013 | [3] 0.086 | [4] 0.001 | [5] 0.011

SLC9A3R2 (UniProt Q15599)
inactive: [1] -0.013 | [2] 0.056 | [3] 0.016 | [4] -0.003 | [5] 0.03

SLK isoform 2 (UniProt Q9H2G2)
inactive: [1] 0.016 | [2] 0.034 | [3] 0.042 | [4] 0.021 | [5] -0.005

SNRPA1 (UniProt P09661)
inactive: [1] 0.024 | [2] -0.009 | [3] -0.032 | [4] 0.057 | [5] 0.019

SMAD5 (UniProt Q99717)
inactive: [1] 0.059 | [2] 0.033 | [3] 0.069 | [4] -0.064 | [5] 0.018

SNAP23 (UniProt O00161)
inactive: [1] 0.014 | [2] -0.001 | [3] 0.002 | [4] -0.008 | [5] 0.049

SOD2 (UniProt P04179)
inactive: [1] 0.009 | [2] -0.009 | [3] -0.062 | [4] -0.015 | [5] 0.071

SNF8 (UniProt Q96H20)
inactive: [1] -0.024 | [2] 0.055 | [3] 0.013 | [4] 0.011 | [5] 0.064

SMG6 (UniProt Q86US8)
inactive: [1] -0.061 | [2] -0.257 | [4] -0.178 | [5] -0.311

SP4 (UniProt Q02446)
inactive: [4] -0.015

SMC5 (UniProt Q8IY18)
inactive: [1] 0.017 | [2] 0.045 | [3] -0.006 | [4] -0.028 | [5] -0.005

SMPD1 (UniProt P17405)
inactive: [3] 0.181

SLC8B1 (UniProt Q6J4K2)
inactive: [1] 0.094 | [2] 0.178 | [3] 0.019 | [5] -0.049

SMIM19 (UniProt Q96E16)
inactive: [3] 0.174 | [4] -0.6

Reference: the supplement of paper PMC10849652
